One series has as its system P. aeruginosa H187. It counts as cell-based, Pseudomonas aeruginosa. An excerpt: (§1) The following bacterial strains were utilized: Escherichia coli UB1005 (wt) and its antibiotic supersusceptible derivative DC2 (Clark, 1984); Excherichia coli SC9251 and its polymixin B rasistant mutant pmrA SC9252 (Peterson, et al., 1987) Pseudomonas aeruginosa H187 (wt) (Angus, et al., 1987) and its antibiotic-sensitive derivative H188 (Zimmerman, W, Antimicrob. Agents Chemother. 18: 94-100, 1980); methicillin sensitive Staphylococcus aureus K147 (Kreiswirth, et al., 1983); Staphylococcus aureus SAP0017, a methicillin resistant clinical isolate from Dr. A. Chow (University of British Columia); Bacillus subtilis, an environmental wt lab strain. Enterococcus faecalis are ATCC 29212 cells and Staphylococcus epidermidis was a clinical isolate from Dr. D. Speert (University of British Columbia). Antifungal activity was tested using a clinical lab isolate of Candida albicans. Salmonella typhinurium C57 and C610 (Fields, P.I., et al., Science 243: 1059-1062 (1989) Corynebacterium xerosis was an environmental isolate (University of British Columbia).
(§2) It is now apparent that agar-based assays severely underestimate antifungal activity as well as activity against gram negative microorganisms (Kondejewski, et al., 1996). Consequently, in the studies reported herein, a liquid-broth method was used to measure the antibiotic properties of the peptides. […] Briefly, cells were grown overnight at 37° C. in LB and diluted in the same medium. Serial dilutions of antibiotics were added to the microtitre plates in a volume of 100 μL followed by 10 μL of bacteria to give a final inoculum of 5×10^5 CFU/mL. Plates were incubated at 37° C. overnight and MICs determined as the lowest antibiotic concentration that inhibited growth.
(§3) The results from antimicrobial and hemolytic assays are combined to provide a “Therapeutic Index” (TI) for each peptide with respect to individual microorganisms. As reported herein, the TI is calculated as the hemolytic activity divided by the antimicrobial activity. The TI thus is a measure of specificity of the particular peptide for microbial membranes as opposed to human blood cell membranes. In the present studies, antimicrobial activities are reported as minimum inhibitory concentrations (MIC)—the lowest concentration of peptide (μg/ml) found to inhibit growth of the particular microbe. Hemolytic activity is reported as the concentration of peptide that effected complete lysis of blood cells after four hours. Thus, in the context of the present invention high TI values indicate microbial specificity and relative lack of toxicity.

The subject of another series is P. aeruginosa H188. The format is cell-based, Pseudomonas aeruginosa.
Excerpt: as §1
as §2, with “growth. […]” for “growth.”

The next series has as its system E. coli UB1005. It counts as cell-based, Escherichia coli.
Excerpt: as §1
as §2, with “growth. […]” for “growth.”

The next series deals with E. coli DC2. It counts as cell-based, Escherichia coli.
Excerpt: as §1, §2, §3

In the next series the test system is S. typhinurium C587. The format is cell-based, Salmonella typhinurium.
Excerpt: as §1
as §2, with “growth. […]” for “growth.”

The test system of another series is S. typhinurium C610. The format is cell-based, Salmonella typhinurium.
Excerpt: as §1
as §2, with “growth. […]” for “growth.”

In a further series the test system is S. aureus K147. The format is cell-based, Staphylococcus aureus.
Excerpt: as §1, §2, §3

A further series concerns S. aureus SAP0017. The format is cell-based, Staphylococcus aureus.
Excerpt: as §1, §2, §3

In a further series the test system is S. epidermidis. The format is cell-based, Staphylococcus epidermidis.
Excerpt: as §1
as §2, with “growth. […]” for “growth.”

The next series deals with B. subtilis. It counts as cell-based, Bacillus subtilis.
Excerpt: as §1
as §2, with “growth. […]” for “growth.”

In a further series the test system is E. faecalis. It counts as cell-based, Enterococcus faecalis.
Excerpt: as §1
as §2, with “growth. […]” for “growth.”

The next series has as its system C. xeroses. It counts as cell-based, Corynebacterium xerosis.
Excerpt: as §1
as §2, with “growth. […]” for “growth.”

The test system of the next series is C. Albicans. It counts as cell-based, Candida albicans.
Excerpt: as §1
as §2, with “growth. […]” for “growth.”

For the compound `CC(C)C[C@@H]1NC(=O)[C@H](CCCCN)NC(=O)[C@H](CC(C)C)NC(=O)[C@@H]2CCCN2C(=O)[C@@H](Cc2ccccc2)NC(=O)[C@H](CC(C)C)NC(=O)[C@@H](CCCCN)NC(=O)[C@H](CC(C)C)NC(=O)[C@H](CCCCN)NC(=O)[C@H](CC(C)C)NC(=O)[C@@H]2CCCN2C(=O)[C@@H](Cc2ccccc2)NC(=O)[C@H](CC(C)C)NC(=O)[C@H](CCCCN)NC1=O` [Y2/F2 V3/L3], the “Therapeutic Index = hemolytic activity/antibacterial activity” value was determined as 1 in the series with P. aeruginosa H187; 4 in the series with P. aeruginosa H188; 1.4 in the series with E. coli UB1005; 6.3 in the series on E. coli DC2; 0.4 with S. typhinurium C587; 1 in the series on S. typhinurium C610. Further, the “Therapeutic Index = hemolytic activity/antibacterial activity” value is on record as 1.4 with S. aureus K147; 1.4 in the series on S. aureus SAP0017; 6.3 with S. epidermidis; 2 in the series on B. subtilis; 8.3 with E. faecalis; 12.5 with C. xeroses. Also, the “Therapeutic Index = hemolytic activity/antibacterial activity” value with C. Albicans worked out at 4.
As for `C[C@@H]1NC(=O)[C@H](CCCCN)NC(=O)[C@H](C)NC(=O)[C@@H]2CCCN2C(=O)[C@@H](Cc2ccc(O)cc2)NC(=O)[C@H](C)NC(=O)[C@@H](CCCCN)NC(=O)[C@H](C)NC(=O)[C@H](CCCCN)NC(=O)[C@H](C)NC(=O)[C@@H]2CCCN2C(=O)[C@@H](Cc2ccc(O)cc2)NC(=O)[C@H](C)NC(=O)[C@H](CCCCN)NC1=O` [V3L3/A6], the “Therapeutic Index = hemolytic activity/antibacterial activity” value with P. aeruginosa H187 is on record as 4; in the series with P. aeruginosa H188, 21; in the series with E. coli UB1005 it was 4; with E. coli DC2, 4; in the series on S. typhinurium C587, 4; with S. typhinurium C610 it was 4. The “Therapeutic Index = hemolytic activity/antibacterial activity” value turned out to be 4 in the series with S. aureus K147; 4 in the series with S. aureus SAP0017; 4 in the series with S. epidermidis; 4 in the series with B. subtilis; 4 in the series on E. faecalis; 8 in the series on C. xeroses. In addition, the “Therapeutic Index = hemolytic activity/antibacterial activity” value in the series with C. Albicans worked out at 4.
For the compound `CC(C)[C@@H]1NC(=O)[C@H](CCCCN)NC(=O)[C@H](C)NC(=O)[C@@H]2CCCN2C(=O)[C@@H](Cc2ccc(O)cc2)NC(=O)[C@H](C(C)C)NC(=O)[C@@H](CCCCN)NC(=O)[C@H](C)NC(=O)[C@H](CCCCN)NC(=O)[C@H](C(C)C)NC(=O)[C@@H]2CCCN2C(=O)[C@@H](Cc2ccc(O)cc2)NC(=O)[C@H](C)NC(=O)[C@H](CCCCN)NC1=O` [L3/A3], the “Therapeutic Index = hemolytic activity/antibacterial activity” value worked out at 8 in the series on P. aeruginosa H187; 21 in the series on P. aeruginosa H188; 8 in the series with E. coli UB1005; 8 in the series with E. coli DC2; 4 with S. typhinurium C587; 16 in the series with S. typhinurium C610. The “Therapeutic Index = hemolytic activity/antibacterial activity” value worked out at 4 in the series on S. aureus K147; 4 in the series on S. aureus SAP0017; 4 in the series on S. epidermidis; 4 in the series with B. subtilis; 4 with E. faecalis; 16 with C. xeroses. Besides, in the series with C. Albicans, the “Therapeutic Index = hemolytic activity/antibacterial activity” value stood at 4.
